Experimental data: PubChem BioAssay AID248 (DTP/NCI, 2004)
The list shows only some results of the screen, not a fair sample: it gathers tests that were run many times, whatever their T/C, doses with no T/C, and many T/C values between a quarter and a half above the control. Further doses and runs are listed elsewhere. T/C gives the treated animals as a percentage of the vehicle group. Some entries give survivors of the animals treated and no T/C: the source holds a T/C of zero for them, seemingly a mark for toxic or unscored doses. Some survivor counts are full or nearly so, which does not show that the dose was tolerated: survival well below the control is almost never listed, so the zero probably covers shortened survival too. Survivors were counted at the toxicity check, usually on the fifth day, unless a day is given; later deaths do not show. Schedules are NCI's codes, read here as Q, the interval in days (D) or hours (H), X, the number of doses. Some doses were run more than once; the values are given in rising order. Where survival is the endpoint, this PubChem deposit counts one and a half times the control or more as active, and values a quarter to a half above the control carry no call in these data; other NCI protocols may use other cut-offs.

Test system: L1210 leukemia ip in BDF1 mice, survival T/C
Experiment: NCI In Vivo Anticancer Drug Screen. Data for tumor model L1210 Leukemia (intraperitoneal) in B6D2F1 (BDF1) mice
Conditions: T/C endpoint: mean survival time, higher T/C = longer survival
[1] = dose: 400.0 mg/kg/injection, schedule: Q04DX003 (ip), vehicle: saline
[2] = dose: 200.0 mg/kg/injection, schedule: Q01DX009 (ip), vehicle: saline
[3] = dose: 200.0 mg/kg/injection, schedule: Q04DX002 (ip), vehicle: Klucel (hydroxypropylcellulose) (HPC)
[4] = dose: 400.0 mg/kg/injection, schedule: Q04DX002 (ip), vehicle: Klucel (hydroxypropylcellulose) (HPC)
[5] = dose: 100.0 mg/kg/injection, schedule: Q01DX001 (ip), vehicle: saline
[6] = dose: 200.0 mg/kg/injection, schedule: Q01DX001 (ip), vehicle: saline
[7] = dose: 400.0 mg/kg/injection, schedule: Q01DX001 (ip), vehicle: saline
[8] = dose: 400.0 mg/kg/injection, schedule: Q01DX001 (ip), vehicle: saline with Tween-80
[9] = dose: 400.0 mg/kg/injection, schedule: Q04DX003 (ip), vehicle: saline with Tween-80
[10] = dose: 100.0 mg/kg/injection, schedule: Q04DX003 (ip), vehicle: saline with Tween-80
[11] = dose: 200.0 mg/kg/injection, schedule: Q04DX003 (ip), vehicle: saline with Tween-80
[12] = dose: 400.0 mg/kg/injection, schedule: Q01DX009 (ip), vehicle: saline with Tween-80
[13] = dose: 200.0 mg/kg/injection, schedule: Q01DX009 (ip), vehicle: Klucel (hydroxypropylcellulose) (HPC)
[14] = dose: 400.0 mg/kg/injection, schedule: Q04DX003 (ip), vehicle: Klucel (hydroxypropylcellulose) (HPC)
[15] = dose: 400.0 mg/kg/injection, schedule: Q01DX009 (ip), vehicle: saline

CCN(CC)CC(=O)N1Cc2ccccc2CCc2ccccc2C1
survivor count (dose: 200.0 mg/kg/injection, schedule: Q04DX003 (ip), vehicle: saline): 0 of 6 | survivor count [1]: 0 of 6

OC(c1cccc2ccccc12)c1c2ccccc2cc2ccccc12 (stereo unspecified)
T/C [2]: 126 % of control

CCc1ccccc1NC(=S)NC
survivor count (dose: 100.0 mg/kg/injection, schedule: Q04DX002 (ip), vehicle: Klucel (hydroxypropylcellulose) (HPC)): 0 of 3 | survivor count [3]: 0 of 3 | survivor count [4]: 0 of 3

NC(=O)OCC(CO)(c1ccccc1)c1ccccc1
survivor count [5]: 0 of 4 | survivor count [6]: 0 of 4 | survivor count [7]: 0 of 4

CC(C)=CCC/C(C)=C/Cn1ccccc1=O
survivor count [8]: 2 of 6

CN(C)N=Nc1ccc(C(=N)N)cc1
survivor count (dose: 200.0 mg/kg/injection, schedule: Q01DX001 (ip), vehicle: acid diluted with saline): 0 of 6 | survivor count (dose: 400.0 mg/kg/injection, schedule: Q01DX001 (ip), vehicle: acid diluted with saline): 0 of 6

O=C(O)c1ccccc1NC(c1ccccc1)c1ccc2cccnc2c1O (stereo unspecified)
survivor count [7]: 2 of 4

Cc1cc(C)c(C)c(C(C)O)c1C (stereo unspecified)
survivor count [9]: 6 of 6

BrCC1CCCCO1 (stereo unspecified)
survivor count [10]: 0 of 6 | survivor count [11]: 0 of 6 | survivor count [9]: 0 of 6

CC(C)c1ccc(C(=O)O)cc1S(=O)(=O)F
survivor count [12]: 0 of 6

CC(C)(C)c1ccc(O)c([N+](=O)[O-])c1
survivor count [3]: 3 of 3 | survivor count [4]: 3 of 3

C=NNc1nc2ccccc2s1
survivor count (dose: 400.0 mg/kg/injection, schedule: Q04DX003 (ip), vehicle: gum acacia): 0 of 6

CCOC(=O)c1ccc(=O)[nH]c1.[Ag]
survivor count (dose: 100.0 mg/kg/injection, schedule: Q01DX009 (ip), vehicle: Klucel (hydroxypropylcellulose) (HPC)): 2 of 6 | survivor count [13]: 0 of 6 | survivor count [14]: 6 of 6

O=[N+]([O-])c1ccccc1SNc1ccccc1
survivor count (dose: 200.0 mg/kg/injection, schedule: Q04DX003 (ip), vehicle: Klucel (hydroxypropylcellulose) (HPC)): 3 of 6

C1CCN(NC2=NCCO2)CC1
survivor count (dose: 50.0 mg/kg/injection, schedule: Q01DX009 (ip), vehicle: saline): 6 of 6 | survivor count [2]: 5 of 6 | survivor count [15]: 0 of 6

CCn1ncc2ccccc2c1=O
survivor count [7]: 1 of 6

O=C(NCCCl)Nc1cccc2c1CCC2
survivor count [14]: 6 of 6

ClCc1ccc(CCl)cc1
survivor count (dose: 335.0 mg/kg/injection, schedule: Q04DX003 (ip), vehicle: Klucel (hydroxypropylcellulose) (HPC)): 1 of 6

N/C(=N\O)c1ccncc1
survivor count [15]: 0 of 6

CCN(CC)CC(=O)CC12CC3CC(CC(C3)C1)C2
survivor count (dose: 12.5 mg/kg/injection, schedule: Q04DX002 (ip), vehicle: saline): 1 of 3 | survivor count (dose: 25.0 mg/kg/injection, schedule: Q04DX002 (ip), vehicle: saline): 0 of 3 | survivor count (dose: 50.0 mg/kg/injection, schedule: Q04DX002 (ip), vehicle: saline): 0 of 3 | survivor count (dose: 100.0 mg/kg/injection, schedule: Q04DX002 (ip), vehicle: saline): 0 of 3 | survivor count (dose: 200.0 mg/kg/injection, schedule: Q04DX002 (ip), vehicle: saline): 0 of 3 | survivor count (dose: 400.0 mg/kg/injection, schedule: Q04DX002 (ip), vehicle: saline): 0 of 3

CCC(=O)C(c1ccccc1)(c1ccccc1)C(C)CN(C)C (stereo unspecified)
survivor count (dose: 80.0 mg/kg/injection, schedule: Q01DX001 (ip), vehicle: saline): 0 of 6 | survivor count [5]: 2 of 6 | survivor count [6]: 0 of 6 | survivor count [7]: 0 of 6

NC(CSSc1ccccc1)=NCC12CC3CC(CC(C3)C1)C2
survivor count (dose: 40.0 mg/kg/injection, schedule: Q01DX001 (ip), vehicle: carboxymethylcellulose (CMC)): 0 of 6 | survivor count (dose: 75.0 mg/kg/injection, schedule: Q01DX001 (ip), vehicle: carboxymethylcellulose (CMC)): 0 of 6 | survivor count (dose: 150.0 mg/kg/injection, schedule: Q01DX001 (ip), vehicle: carboxymethylcellulose (CMC)): 0 of 6 | survivor count (dose: 300.0 mg/kg/injection, schedule: Q01DX001 (ip), vehicle: carboxymethylcellulose (CMC)): 0 of 6

CCOC(=O)C[n+]1ccccc1
survivor count [2]: 0 of 6

C[CH2][Sn]([CH2]C)([CH2]C)[O]c1ccccc1
survivor count (dose: 6.25 mg/kg/injection, schedule: Q01DX009 (ip), vehicle: saline with Tween-80): 1 of 3 and 2 of 3 | survivor count (dose: 12.5 mg/kg/injection, schedule: Q01DX009 (ip), vehicle: saline with Tween-80): 0 of 3 | survivor count (dose: 25.0 mg/kg/injection, schedule: Q01DX009 (ip), vehicle: saline with Tween-80): 0 of 3 | survivor count (dose: 50.0 mg/kg/injection, schedule: Q01DX009 (ip), vehicle: saline with Tween-80): 0 of 3 | survivor count (dose: 100.0 mg/kg/injection, schedule: Q01DX009 (ip), vehicle: saline with Tween-80): 0 of 3 and 0 of 6 | survivor count (dose: 200.0 mg/kg/injection, schedule: Q01DX009 (ip), vehicle: saline with Tween-80): 0 of 6 | survivor count [12]: 0 of 6

CC1CC(N2CSC(=S)N(C3CC(C)CC(C)(C)C3)C2)CC(C)(C)C1 (stereo unspecified)
survivor count (dose: 50.0 mg/kg/injection, schedule: Q01DX009 (ip), vehicle: Klucel (hydroxypropylcellulose) (HPC)): 6 of 6 | survivor count [13]: 6 of 6 | survivor count (dose: 400.0 mg/kg/injection, schedule: Q01DX009 (ip), vehicle: Klucel (hydroxypropylcellulose) (HPC)): 6 of 6

CC(C)(CO)N(CC(=O)O)CC(=O)O
survivor count [7]: 1 of 4

CC1CCC(=O)OCCCC(=O)C1 (stereo unspecified)
survivor count [6]: 4 of 4

c1ccc2c(CC[n+]3cccc(C4OCCO4)c3)c[nH]c2c1
survivor count [10]: 6 of 6 | survivor count [11]: 3 of 6 | survivor count [9]: 0 of 6

Oc1ccccc1C=NC1CCCCC1.Oc1ccccc1C=NC1CCCCC1.[Ni+2]
survivor count [1]: 3 of 6

CC(C)=CC1C(C(=O)OC2CCN(C)CC2)C1(C)C (stereo unspecified)
survivor count [6]: 0 of 6 | survivor count [7]: 0 of 6

CCCCCCCCCCCCCCCC=C(C)C
survivor count [8]: 6 of 6

CCCCCCCCCCCCCCCCCCCCCCCC(=O)OCC
survivor count [10]: 6 of 6 | survivor count [11]: 6 of 6

C[n+]1ccc(/C=C\c2ccc3c(c2)OCO3)cc1
survivor count (dose: 150.0 mg/kg/injection, schedule: Q01DX001 (ip), vehicle: saline): 3 of 6 | survivor count (dose: 300.0 mg/kg/injection, schedule: Q01DX001 (ip), vehicle: saline): 3 of 6

CCSc1ncc(F)c(=O)[nH]1
survivor count [7]: 0 of 4
